Laboratory results taken from paper PMC2361459, “Safety, tolerability and pharmacokinetics of intravenous ghrelin for cancer-related anorexia/cachexia: a randomised, placebo-controlled, double-blind, double-crossover study” (British Journal of Cancer, 2008).

Test system: patients with advanced incurable cancer and anorexia/cachexia

## CCCCCCCC(=O)OC[C@H](NC(=O)[C@H](CO)NC(=O)CN)C(=O)N[C@@H](Cc1ccccc1)C(=O)N[C@@H](CC(C)C)C(=O)N[C@@H](CO)C(=O)N1CCC[C@H]1C(=O)N[C@@H](CCC(=O)O)C(=O)N[C@@H](Cc1c[nH]cn1)C(=O)N[C@@H](CCC(N)=O)C(=O)N[C@@H](CCCNC(=N)N)C(=O)N[C@H](C(=O)N[C@@H](CCC(N)=O)C(=O)N[C@@H](CCC(N)=O)C(=O)N[C@@H](CCCNC(=N)N)C(=O)N[C@@H](CCCCN)C(=O)N[C@@H](CCC(=O)O)C(=O)N[C@@H](CO)C(=O)N[C@@H](CCCCN)C(=O)N[C@@H](CCCCN)C(=O)N1CCC[C@H]1C(=O)N1CCC[C@H]1C(=O)N[C@@H](C)C(=O)N[C@@H](CCCCN)C(=O)N[C@@H](CC(C)C)C(=O)N[C@@H](CCC(N)=O)C(=O)N1CCC[C@H]1C(=O)N[C@@H](CCCNC(=N)N)C(=O)O)C(C)C [ghrelin]
At the end of study, both dose groups
  patients who preferred ghrelin to placebo: 63%
Day 7, lower dose, sequence G-P, low numbers = prefers first treatment
  treatment preference (VAS 0–100), median (min, max): 42 (3, 66)
Day 7, lower dose, sequence P-G, high numbers = prefers second treatment
  treatment preference (VAS 0–100), median (min, max): 80 (49, 100)
Day 7, upper dose, sequence G-P, low numbers = prefers first treatment
  treatment preference (VAS 0–100), median (min, max): 45 (2, 96)
Day 7, upper dose, sequence P-G, high numbers = prefers second treatment
  treatment preference (VAS 0–100), median (min, max): 77 (54, 100)
end-of-study, lower dose, sequence G-P-G-P, low numbers = prefers first and third treatment
  treatment preference (VAS 0–100), median (min, max): 20 (10, 99)
end-of-study, lower dose, sequence P-G-P-G, high numbers = prefers second and fourth treatment
  treatment preference (VAS 0–100), median (min, max): 54 (5, 100)
end-of-study, upper dose, sequence G-P-G-P, low numbers = prefers first and third treatment
  treatment preference (VAS 0–100), median (min, max): 69 (56, 94)
end-of-study, upper dose, sequence P-G-P-G, high numbers = prefers second and fourth treatment
  treatment preference (VAS 0–100), median (min, max): 83 (56, 100)

Where two headings read alike, the source gives them in different places.
